{"source": "PubChem BioAssay AID1224830 (NIAID, 2016)", "purpose": "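Host factors that control LPS-induced TNF expression in human macrophages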 (primary screen)", "cell system": "human THP-1 monocytic leukaemia cells, TNF dual-luciferase reporter clone, PMA-differentiated to macrophage-like cells", "reagent": "siRNA pool against human genes, 50 nM", "timing": "LPS for 4 h, given about 3 days after siRNA transfection", "treatment": "bacterial LPS (TLR4 ligand), 10 ng/ml", "read-out": "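TNF firefly reporter luminescence divided by renilla, normalised to the plate median, then turned into a robust z-score for each replicate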", "scale": "TNF reporter robust z-score: higher = stronger TNF reporter response to LPS", "call rule": "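a well is active when its z-score exceeds 2.8 or falls below -1.5; control wells carry no call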", "note": "The deposit covers about 18,000 reagents; below is an unselected part. About 2,900 of all reagents (16%) count as active. 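Calls are made per well; low scores hint the gene aids the LPS response, high scores that it dampens it.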 Repeated entries: four replicate wells of each siRNA pool."}
{"gene knocked down":"GFRA4","TNF reporter robust z-score":-0.4,"activity call":"inactive"}
{"gene knocked down":"GFRA4","TNF reporter robust z-score":-0.66,"activity call":"inactive"}
{"gene knocked down":"GFRA4","TNF reporter robust z-score":-0.79,"activity call":"inactive"}
{"gene knocked down":"GFRA4","TNF reporter robust z-score":-1.26,"activity call":"inactive"}
{"gene knocked down":"RPA1","TNF reporter robust z-score":1.48,"activity call":"inactive"}
{"gene knocked down":"RPA1","TNF reporter robust z-score":2.33,"activity call":"inactive"}
{"gene knocked down":"RPA1","TNF reporter robust z-score":2.04,"activity call":"inactive"}
{"gene knocked down":"RPA1","TNF reporter robust z-score":0.86,"activity call":"inactive"}
{"gene knocked down":"SLC35A1","TNF reporter robust z-score":0.83,"activity call":"inactive"}
{"gene knocked down":"SLC35A1","TNF reporter robust z-score":0.65,"activity call":"inactive"}
{"gene knocked down":"SLC35A1","TNF reporter robust z-score":1.55,"activity call":"inactive"}
{"gene knocked down":"SLC35A1","TNF reporter robust z-score":-0.16,"activity call":"inactive"}
{"gene knocked down":"PLAG1","TNF reporter robust z-score":-1.44,"activity call":"inactive"}
{"gene knocked down":"PLAG1","TNF reporter robust z-score":-1.24,"activity call":"inactive"}
{"gene knocked down":"PLAG1","TNF reporter robust z-score":-0.79,"activity call":"inactive"}
{"gene knocked down":"PLAG1","TNF reporter robust z-score":-0.82,"activity call":"inactive"}
{"gene knocked down":"PCDHA7","TNF reporter robust z-score":0.02,"activity call":"inactive"}
{"gene knocked down":"PCDHA7","TNF reporter robust z-score":-0.02,"activity call":"inactive"}
{"gene knocked down":"PCDHA7","TNF reporter robust z-score":0.32,"activity call":"inactive"}
{"gene knocked down":"PCDHA7","TNF reporter robust z-score":0.68,"activity call":"inactive"}

An excerpt of the results above, for reference:
{"gene knocked down":"SLC35A1","TNF reporter robust z-score":1.55,"activity call":"inactive"}
{"gene knocked down":"SLC35A1","TNF reporter robust z-score":-0.16,"activity call":"inactive"}
